Measured values taken from US20060035283A1.
These are yes or no findings as the source states them, for the method shown. Binding seen in cells or lysates may run through a third protein. Some results given as binding are weak or reduced against the parent protein; the word gives no strength. For some assays here: Where a sequence is shown, tags or fusion partners need not be part of it. Blank lines part the entries; values can stand above or below the binder they belong to.

Sequences of proteins named here, by UniProt entry; tags and fusion partners are left off. A change or cut given only in a name is not applied to a line headed by its entry.
UniProt Q00960: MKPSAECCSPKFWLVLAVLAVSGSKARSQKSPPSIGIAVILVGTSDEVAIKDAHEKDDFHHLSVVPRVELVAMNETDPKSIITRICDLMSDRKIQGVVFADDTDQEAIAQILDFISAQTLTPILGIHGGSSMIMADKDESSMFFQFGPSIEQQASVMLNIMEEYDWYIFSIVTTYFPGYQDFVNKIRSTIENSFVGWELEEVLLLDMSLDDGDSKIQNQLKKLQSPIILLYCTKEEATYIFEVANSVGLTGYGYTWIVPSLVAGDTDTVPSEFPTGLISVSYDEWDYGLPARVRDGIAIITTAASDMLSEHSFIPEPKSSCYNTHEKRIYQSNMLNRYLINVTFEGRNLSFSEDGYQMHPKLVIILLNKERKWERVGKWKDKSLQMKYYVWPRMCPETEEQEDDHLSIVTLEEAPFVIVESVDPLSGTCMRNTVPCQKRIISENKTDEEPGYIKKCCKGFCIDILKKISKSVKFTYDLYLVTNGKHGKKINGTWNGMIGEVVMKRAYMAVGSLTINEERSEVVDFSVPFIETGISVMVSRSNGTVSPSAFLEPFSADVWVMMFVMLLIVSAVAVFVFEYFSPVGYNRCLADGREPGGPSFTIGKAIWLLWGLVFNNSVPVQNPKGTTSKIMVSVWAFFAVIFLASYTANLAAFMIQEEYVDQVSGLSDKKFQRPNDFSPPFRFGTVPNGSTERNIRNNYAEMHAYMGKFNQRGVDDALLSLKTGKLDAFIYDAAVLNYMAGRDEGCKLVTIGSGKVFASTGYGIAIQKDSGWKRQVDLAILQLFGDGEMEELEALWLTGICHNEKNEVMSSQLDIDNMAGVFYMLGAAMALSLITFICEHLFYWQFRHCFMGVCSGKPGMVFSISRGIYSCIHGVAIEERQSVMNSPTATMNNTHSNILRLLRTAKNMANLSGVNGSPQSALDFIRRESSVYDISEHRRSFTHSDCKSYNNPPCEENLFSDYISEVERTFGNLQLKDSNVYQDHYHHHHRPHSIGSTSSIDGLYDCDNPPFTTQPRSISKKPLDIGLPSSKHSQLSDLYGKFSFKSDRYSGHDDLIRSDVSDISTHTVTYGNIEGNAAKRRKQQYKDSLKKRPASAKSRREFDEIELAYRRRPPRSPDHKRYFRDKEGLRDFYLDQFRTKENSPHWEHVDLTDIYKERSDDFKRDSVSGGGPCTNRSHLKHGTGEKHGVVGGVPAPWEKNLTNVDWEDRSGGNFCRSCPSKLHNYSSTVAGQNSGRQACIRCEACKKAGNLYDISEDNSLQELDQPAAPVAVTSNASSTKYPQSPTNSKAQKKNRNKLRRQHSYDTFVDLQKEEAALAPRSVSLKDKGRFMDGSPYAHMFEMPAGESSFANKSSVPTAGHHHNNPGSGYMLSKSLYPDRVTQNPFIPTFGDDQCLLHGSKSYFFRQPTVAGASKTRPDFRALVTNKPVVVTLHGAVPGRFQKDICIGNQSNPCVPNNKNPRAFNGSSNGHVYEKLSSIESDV

What was measured:
[1] = molecular target: in vitro translated full-length NR2B (Rattus norvegicus (Rat)) (UniProt Q00960); assay: co-immunoprecipitation of in vitro translated proteins with anti-HA
[2] = molecular target: GFP-rat NR2B (full-length, expressed in HEK293T cells) (rat) (UniProt Q00960); assay: co-immunoprecipitation from co-transfected HEK293T cells
[3] = molecular target: native rat NR2B subunit of the NMDA receptor (rat) (UniProt Q00960); assay: co-immunoprecipitation of native proteins
[4] = molecular target: native rat NR2B subunit of the NMDA receptor (rat) (UniProt Q00960); assay: summary of the co-immunoprecipitation and in vitro binding experiments

binding [1]: binds
B1: HA-tagged RasGRF1 fragment, amino acids 714-913 (protein, not shown: small tags and cut ends)
chain: RASRKFSSPPPLAIGTSSPVRRRKLSLNIPIITGGKALELASLGCPSDGYTNIHSPISPFGKTTLDTSKLCVASSLTRTPEEIDMTTLEESSGFRKPTSDILKEESDDDQSDVDDTEVSPPTPKSFRNRITQEFPLFNYNSGIMMTCRDLMDSNRSPLSATSAFAIATAGANESPANKEIYRRMSLANTGYSSDQRNIDK

binding [2]: binds
B2: full-length mouse RasGRF1 (protein, UniProt P27671 1-1262, looked up)
chain: MQKAIRLNDGHVVTLGLLAQKDGTRKGYLSKRSADNPKWQTKWFALLQNLLFYFESDSSPRPSGLYLLEGSICKRAPSPKRGTSSKESGEKQQHYFTVNFSNDSQKTLELRTEDAKDCDEWVAAIARASYKILATEHEALMQKYLHLLQVVETEKTVAKQLRQQLEDGEVEIERLKTEVTITNLIKDNDRIQSSNKAGSADDEDSDIKKIKKVQSFLRGWLCRRKWKNIIQDYIRSPHADSMRKRNQVVFSMLEAEAEYVQQLHILVNNFLRPLRMAASSKKPPITHDDVSSIFLNSETIMFLHQIFYQGLKARISSWPTLVLADLFDILLPMLNIYQEFVRNHQYSLQILAHCKQNRDFDKLLKQYEAKPDCEERTLETFLTYPMFQIPRYILTLHELLAHTPHEHVERNSLDYAKSKLEELSRIMHDEVSETENIRKNLAIERMITEGCEILLDTSQTFVRQGSLMQMSLSEKSKSSRGRLGSLSTKKEGERQCFLFSKHLIICTRGSGGKLHLTKNGVISLIDCTLLDEPENLDDEAKGAGPEIEHLEFKIGVEPKDSLPFTVILVASTRQEKAAWTSDIIQCVDNIRCNGLMMNAFEENSKVTVPQMIKSDASLYCDDVDIRFSKTMNSCKVLQIRYASVERLLERLTDLRFLSIDFLNTFLHSYRVFTNAMVVLDKLINIYRKPMSAIPARSLELLFSSSHNAKLLYGDAPKSPRASRKFSSPPPLAIGTSSPSRRRKLSLNIPIITGGKALELASLGCSSDSYANIHSPISPFGKTTLDTGKLCMASSLPKTPEEIDVPATIPEKPGELSASRKHSSDVLKEESEDDQNHSDEDNTEVSPVKSPPTPKSFLNRTITEFPFFNYNNGILMTTCRDLVDNNRSTLSATSAFAIATAGANEGPSNKEVFRRMSLANTGFSSDQRNIDKEFVIRRAATNRVLNVLRHWVTKHTQDFDTDDTLKYRVICFLEEVMHDPDLLTQERKAAANIIRTLTLEETTEQHSMLEEVILMTEGVKTEPFENHPALEIAEQLTLLDHLVFKSIPYEEFFGQGWMKAEKYERTPYIMKTTKHFNHVSNFIASEIIRNEDISARASAIEKWVAVADICRCLHNYNAVLEITSSINRSAIFRLKKTWLKVSKQTKSLLDKLQKLVSSDGRFKNLRESLRNCDPPCVPYLGMYLTDLVFIEEGTPNYTEDGLVNFSKMRMISHIIREIRQFQQTTYKIDPQPKVIQYLLDESFMLDEESLYESSLLIEPKLPT

binding [3]: binds | binding [4]: binds
B3: native rat Ras-GRF1 (protein)
chain: MQKAIRLNDGHVVSLGLLAQRDGTRKGYLSKRSSDNPKWQTKWFALLQNLLFYFESDSSSRPSGLYLLEGSICKRMPSPKRGTSSKESDKQHHYFTVNFSNDSQKSLELRTDDSKDCDEWVAAIARASYKILATEHEALMQKYLHLLQVVETEKTVAKQLRQQLEDGEVEIERLKAEIANLIKDNERIQSNQLVAPEDEDSDIKKIKKVQSFLRGWLCRRKWKNIIQDYIRSPHADSMRKRNQVVFSMLEAEAEYVQQLHILVNNFLRPLRMAASSKKPPITHDDVSSIFLNSETIMFLHQIFYQGLKARIASWPTLVLADLFDILLPMLNIYQEFVRNHQYSLQILAHCKQNRDFDKLLKQYEAKPDCEERTLETFLTYPMFQIPRYILTLHELLAHTPHEHVERNSLDYAKSKLEELSRVMHDEVSETENIRKNLAIERMITEGCEILLDTSQTFVRQGSLIQVPMSEKGKINKGRLGSLSLKKEGERQCFLFSKHLIICTRGSGSKLHLTKNGVISLIDCTLLDDPENMDDDGKGQEVDHLDFKIWVEPKDSPPFTVILVASSRQEKAAWTSDIIQCVDNIRCNGLMMNAFEENSKVTVPQMIKSDASLYCDDVDIRFSKTMNSCKVLQIRYASVERLLERLTDLRFLSIDFLNTFLHSYRVFTDAVVVLDKLISIYKKPITAIPARSLELLFSSSHNTKLLYGDAPKSPRASRKFSSPPPLAIGTSSPVRRRKLSLNIPIITGGKALELASLGCPSDGYTNIHSPISPFGKTTLDTSKLCVASSLTRTPEEIDMTTLEESSGFRKPTSDILKEESDDDQSDVDDTEVSPPTPKSFRNRITQEFPLFNYNSGIMMTCRDLMDSNRSPLSATSAFAIATAGANESPANKEIYRRMSLANTGYSSDQRNIDKEFVIRRAATNRVLNVLRHWVTKHSQDFETDDLLKYKVICFLEEVMHDPDLLPQERKAAANIMRTLTQEEITENHSMLDELLLMTEGVKTEPFENHSAMEIAEQLTLLDHLVFKSIPYEEFFGQGWMKADKNERTPYIMKTTRHFNHISNLIASEILRNEEVSARASTIEKWVAVADICRCLHNYNAVLEITSSINRSAIFRLKKTWLKVSKQTKSLFDKLQKLVSSDGRFKNLRETLRNCDPPCVPYLGMYLTDLAFLEEGTPNYTEDGLVNFSKMRMISHIIREIRQFQQTTYKIEPQPKVTQYLVDETFVLDDESLYEASLRIEPKLPT

binding [1]: binds
B4: HA-tagged RasGRF1 fragment, amino acids 714-1244 (protein, not shown: small tags and cut ends)
chain: RASRKFSSPPPLAIGTSSPVRRRKLSLNIPIITGGKALELASLGCPSDGYTNIHSPISPFGKTTLDTSKLCVASSLTRTPEEIDMTTLEESSGFRKPTSDILKEESDDDQSDVDDTEVSPPTPKSFRNRITQEFPLFNYNSGIMMTCRDLMDSNRSPLSATSAFAIATAGANESPANKEIYRRMSLANTGYSSDQRNIDKEFVIRRAATNRVLNVLRHWVTKHSQDFETDDLLKYKVICFLEEVMHDPDLLPQERKAAANIMRTLTQEEITENHSMLDELLLMTEGVKTEPFENHSAMEIAEQLTLLDHLVFKSIPYEEFFGQGWMKADKNERTPYIMKTTRHFNHISNLIASEILRNEEVSARASTIEKWVAVADICRCLHNYNAVLEITSSINRSAIFRLKKTWLKVSKQTKSLFDKLQKLVSSDGRFKNLRETLRNCDPPCVPYLGMYLTDLAFLEEGTPNYTEDGLVNFSKMRMISHIIREIRQFQQTTYKIEPQPKVTQYLVDETFVLDDESLYEASLRIEPKLPT
